# From the supplement of paper PMC12067093, “Discovery and optimisation of a covalent ligand for TRIM25 and its application to targeted protein ubiquitination” (Chemical Science, 2025)
# Sequences of proteins named here, by UniProt entry; tags and fusion partners are left off. A change or cut given only in a name is not applied to a line headed by its entry.
# UniProt Q13630: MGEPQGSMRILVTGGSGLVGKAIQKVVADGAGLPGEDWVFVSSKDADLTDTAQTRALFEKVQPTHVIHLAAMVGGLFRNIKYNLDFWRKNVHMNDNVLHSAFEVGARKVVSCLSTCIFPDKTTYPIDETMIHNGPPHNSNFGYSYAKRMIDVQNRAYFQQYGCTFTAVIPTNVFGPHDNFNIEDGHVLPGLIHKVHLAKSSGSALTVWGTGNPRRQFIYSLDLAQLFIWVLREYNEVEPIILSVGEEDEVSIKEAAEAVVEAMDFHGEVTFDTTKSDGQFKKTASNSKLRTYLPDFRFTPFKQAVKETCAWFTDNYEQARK
# UniProt Q14166: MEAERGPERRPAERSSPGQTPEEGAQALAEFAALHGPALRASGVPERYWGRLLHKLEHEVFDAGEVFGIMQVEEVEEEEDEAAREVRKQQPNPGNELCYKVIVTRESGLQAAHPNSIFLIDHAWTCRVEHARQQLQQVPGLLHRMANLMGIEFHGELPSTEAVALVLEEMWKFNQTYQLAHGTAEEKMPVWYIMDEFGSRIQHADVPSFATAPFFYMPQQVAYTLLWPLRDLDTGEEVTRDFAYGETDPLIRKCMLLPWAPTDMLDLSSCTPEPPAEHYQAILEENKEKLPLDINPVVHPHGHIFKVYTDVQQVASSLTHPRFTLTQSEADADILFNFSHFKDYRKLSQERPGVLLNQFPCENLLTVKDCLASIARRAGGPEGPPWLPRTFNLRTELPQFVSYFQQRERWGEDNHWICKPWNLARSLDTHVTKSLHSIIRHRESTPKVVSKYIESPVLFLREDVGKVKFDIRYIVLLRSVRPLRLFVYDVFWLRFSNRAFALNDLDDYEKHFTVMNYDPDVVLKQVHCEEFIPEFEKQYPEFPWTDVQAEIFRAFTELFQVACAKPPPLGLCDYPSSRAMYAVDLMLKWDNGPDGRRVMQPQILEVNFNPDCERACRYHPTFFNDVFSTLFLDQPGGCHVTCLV
# UniProt Q96CW5, whole entry, looked up: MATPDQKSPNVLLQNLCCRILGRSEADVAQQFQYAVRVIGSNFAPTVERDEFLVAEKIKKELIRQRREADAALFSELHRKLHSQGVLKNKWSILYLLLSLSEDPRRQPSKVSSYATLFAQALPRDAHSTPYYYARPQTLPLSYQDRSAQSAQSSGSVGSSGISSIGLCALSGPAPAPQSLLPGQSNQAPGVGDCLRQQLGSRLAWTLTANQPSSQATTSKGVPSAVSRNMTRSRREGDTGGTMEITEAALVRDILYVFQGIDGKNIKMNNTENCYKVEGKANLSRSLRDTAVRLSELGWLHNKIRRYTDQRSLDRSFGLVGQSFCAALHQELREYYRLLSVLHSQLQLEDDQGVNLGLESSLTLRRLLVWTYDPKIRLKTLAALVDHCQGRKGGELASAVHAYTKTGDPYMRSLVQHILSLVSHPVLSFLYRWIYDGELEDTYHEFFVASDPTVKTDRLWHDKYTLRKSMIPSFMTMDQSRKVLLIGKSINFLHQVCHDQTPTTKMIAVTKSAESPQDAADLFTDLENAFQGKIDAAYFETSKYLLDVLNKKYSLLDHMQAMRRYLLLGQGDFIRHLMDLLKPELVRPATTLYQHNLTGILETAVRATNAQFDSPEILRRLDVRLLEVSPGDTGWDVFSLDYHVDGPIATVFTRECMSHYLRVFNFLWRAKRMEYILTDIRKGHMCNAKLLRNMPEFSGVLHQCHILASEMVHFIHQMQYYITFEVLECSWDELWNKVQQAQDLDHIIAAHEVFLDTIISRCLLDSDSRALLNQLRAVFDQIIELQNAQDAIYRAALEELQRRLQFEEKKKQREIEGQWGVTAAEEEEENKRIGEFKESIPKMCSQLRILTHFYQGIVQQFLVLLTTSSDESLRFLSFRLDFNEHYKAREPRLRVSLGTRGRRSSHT
# UniProt Q9Y4A5, whole entry, looked up: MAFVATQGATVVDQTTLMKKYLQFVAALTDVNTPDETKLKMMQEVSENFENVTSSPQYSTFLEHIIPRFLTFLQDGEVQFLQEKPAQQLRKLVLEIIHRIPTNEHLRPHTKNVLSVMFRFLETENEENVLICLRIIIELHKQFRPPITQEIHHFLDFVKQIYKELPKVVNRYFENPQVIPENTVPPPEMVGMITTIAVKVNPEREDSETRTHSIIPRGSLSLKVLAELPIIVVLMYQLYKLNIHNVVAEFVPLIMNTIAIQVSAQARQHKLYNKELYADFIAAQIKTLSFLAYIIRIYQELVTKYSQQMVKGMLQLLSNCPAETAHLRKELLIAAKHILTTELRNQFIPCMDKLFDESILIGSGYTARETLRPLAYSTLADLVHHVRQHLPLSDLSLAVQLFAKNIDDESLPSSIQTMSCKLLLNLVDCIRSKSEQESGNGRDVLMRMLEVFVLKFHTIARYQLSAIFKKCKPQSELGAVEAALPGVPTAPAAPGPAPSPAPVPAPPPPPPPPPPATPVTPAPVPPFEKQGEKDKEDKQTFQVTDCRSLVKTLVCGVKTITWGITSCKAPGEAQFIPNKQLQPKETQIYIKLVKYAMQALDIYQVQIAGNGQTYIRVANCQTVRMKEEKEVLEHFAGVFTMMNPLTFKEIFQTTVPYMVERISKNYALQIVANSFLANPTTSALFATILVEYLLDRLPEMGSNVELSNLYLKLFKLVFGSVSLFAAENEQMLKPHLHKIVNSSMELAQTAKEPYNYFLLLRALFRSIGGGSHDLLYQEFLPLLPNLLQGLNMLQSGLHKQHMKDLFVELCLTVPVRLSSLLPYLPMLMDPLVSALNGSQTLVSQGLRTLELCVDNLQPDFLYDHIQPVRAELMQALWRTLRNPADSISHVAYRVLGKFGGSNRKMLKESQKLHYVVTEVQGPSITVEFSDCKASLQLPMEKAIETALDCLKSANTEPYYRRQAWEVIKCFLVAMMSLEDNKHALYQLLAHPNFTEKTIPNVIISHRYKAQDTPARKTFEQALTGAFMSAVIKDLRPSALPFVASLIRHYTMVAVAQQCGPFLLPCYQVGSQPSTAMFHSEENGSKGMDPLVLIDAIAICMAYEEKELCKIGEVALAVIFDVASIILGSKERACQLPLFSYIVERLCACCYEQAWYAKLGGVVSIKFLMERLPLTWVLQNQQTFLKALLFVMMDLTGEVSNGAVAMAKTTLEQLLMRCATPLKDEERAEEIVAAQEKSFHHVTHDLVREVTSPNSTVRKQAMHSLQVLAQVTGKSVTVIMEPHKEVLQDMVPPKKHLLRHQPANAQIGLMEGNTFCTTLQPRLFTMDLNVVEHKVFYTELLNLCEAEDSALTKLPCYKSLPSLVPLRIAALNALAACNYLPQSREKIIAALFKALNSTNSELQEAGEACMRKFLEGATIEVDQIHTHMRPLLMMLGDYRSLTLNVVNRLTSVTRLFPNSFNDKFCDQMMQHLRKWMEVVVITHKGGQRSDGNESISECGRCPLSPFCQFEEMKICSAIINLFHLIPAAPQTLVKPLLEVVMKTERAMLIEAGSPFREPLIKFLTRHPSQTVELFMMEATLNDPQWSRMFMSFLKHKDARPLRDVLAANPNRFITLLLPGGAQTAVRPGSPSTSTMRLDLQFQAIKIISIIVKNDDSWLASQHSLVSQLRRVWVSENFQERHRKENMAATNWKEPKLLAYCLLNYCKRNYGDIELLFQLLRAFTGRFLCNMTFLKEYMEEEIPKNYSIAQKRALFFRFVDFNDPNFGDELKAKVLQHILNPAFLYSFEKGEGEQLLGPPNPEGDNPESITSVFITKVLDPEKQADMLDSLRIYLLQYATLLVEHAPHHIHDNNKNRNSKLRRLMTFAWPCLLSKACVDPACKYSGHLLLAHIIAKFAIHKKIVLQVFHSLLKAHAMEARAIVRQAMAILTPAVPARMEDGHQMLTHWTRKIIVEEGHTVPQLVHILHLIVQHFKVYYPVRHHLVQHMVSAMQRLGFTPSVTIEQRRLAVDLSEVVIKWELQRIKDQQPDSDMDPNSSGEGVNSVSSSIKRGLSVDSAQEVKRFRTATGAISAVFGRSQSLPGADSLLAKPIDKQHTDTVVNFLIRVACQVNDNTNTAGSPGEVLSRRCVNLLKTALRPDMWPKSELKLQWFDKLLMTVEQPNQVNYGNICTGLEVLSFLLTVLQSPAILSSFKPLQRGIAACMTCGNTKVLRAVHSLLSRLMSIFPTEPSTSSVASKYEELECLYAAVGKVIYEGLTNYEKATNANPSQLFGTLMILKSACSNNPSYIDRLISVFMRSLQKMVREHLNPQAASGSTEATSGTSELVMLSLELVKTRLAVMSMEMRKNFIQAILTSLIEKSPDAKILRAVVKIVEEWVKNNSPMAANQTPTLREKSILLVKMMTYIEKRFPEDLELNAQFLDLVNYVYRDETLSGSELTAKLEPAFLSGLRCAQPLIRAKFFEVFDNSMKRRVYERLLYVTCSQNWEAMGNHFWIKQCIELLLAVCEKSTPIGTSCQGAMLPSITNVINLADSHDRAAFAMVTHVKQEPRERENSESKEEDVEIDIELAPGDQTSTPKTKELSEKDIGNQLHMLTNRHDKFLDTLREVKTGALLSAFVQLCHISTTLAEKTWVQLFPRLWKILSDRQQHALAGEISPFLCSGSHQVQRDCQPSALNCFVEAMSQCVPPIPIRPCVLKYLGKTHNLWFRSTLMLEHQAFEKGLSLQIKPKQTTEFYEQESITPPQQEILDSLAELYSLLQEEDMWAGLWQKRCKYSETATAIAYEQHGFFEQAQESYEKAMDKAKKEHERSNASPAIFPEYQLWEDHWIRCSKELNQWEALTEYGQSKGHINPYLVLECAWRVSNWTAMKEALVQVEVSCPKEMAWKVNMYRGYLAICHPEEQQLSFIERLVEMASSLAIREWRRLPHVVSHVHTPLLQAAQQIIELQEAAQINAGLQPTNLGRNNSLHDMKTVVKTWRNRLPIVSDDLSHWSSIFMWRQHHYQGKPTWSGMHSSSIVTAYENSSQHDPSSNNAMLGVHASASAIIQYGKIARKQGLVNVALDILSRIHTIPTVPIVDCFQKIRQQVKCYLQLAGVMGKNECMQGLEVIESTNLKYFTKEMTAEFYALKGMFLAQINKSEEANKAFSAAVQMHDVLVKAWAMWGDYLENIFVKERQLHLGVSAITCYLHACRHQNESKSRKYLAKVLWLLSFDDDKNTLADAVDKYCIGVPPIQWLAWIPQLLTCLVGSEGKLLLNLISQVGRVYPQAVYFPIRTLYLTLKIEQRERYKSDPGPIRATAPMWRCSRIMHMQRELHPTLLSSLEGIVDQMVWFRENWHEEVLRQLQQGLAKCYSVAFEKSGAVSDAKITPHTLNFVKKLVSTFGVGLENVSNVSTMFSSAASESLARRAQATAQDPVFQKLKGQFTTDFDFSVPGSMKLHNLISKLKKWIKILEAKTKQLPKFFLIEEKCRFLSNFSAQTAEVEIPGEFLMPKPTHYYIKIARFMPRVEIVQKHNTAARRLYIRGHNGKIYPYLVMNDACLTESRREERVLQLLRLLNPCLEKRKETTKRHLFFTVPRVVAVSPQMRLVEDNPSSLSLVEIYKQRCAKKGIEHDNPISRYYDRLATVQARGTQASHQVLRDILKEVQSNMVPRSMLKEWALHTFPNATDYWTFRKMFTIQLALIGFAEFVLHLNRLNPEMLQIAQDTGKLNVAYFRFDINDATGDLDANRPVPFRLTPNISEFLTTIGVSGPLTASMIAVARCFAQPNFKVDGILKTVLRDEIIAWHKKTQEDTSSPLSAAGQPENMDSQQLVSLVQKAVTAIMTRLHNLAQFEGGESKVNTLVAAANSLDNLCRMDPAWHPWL
# UniProt Q8N0Z6: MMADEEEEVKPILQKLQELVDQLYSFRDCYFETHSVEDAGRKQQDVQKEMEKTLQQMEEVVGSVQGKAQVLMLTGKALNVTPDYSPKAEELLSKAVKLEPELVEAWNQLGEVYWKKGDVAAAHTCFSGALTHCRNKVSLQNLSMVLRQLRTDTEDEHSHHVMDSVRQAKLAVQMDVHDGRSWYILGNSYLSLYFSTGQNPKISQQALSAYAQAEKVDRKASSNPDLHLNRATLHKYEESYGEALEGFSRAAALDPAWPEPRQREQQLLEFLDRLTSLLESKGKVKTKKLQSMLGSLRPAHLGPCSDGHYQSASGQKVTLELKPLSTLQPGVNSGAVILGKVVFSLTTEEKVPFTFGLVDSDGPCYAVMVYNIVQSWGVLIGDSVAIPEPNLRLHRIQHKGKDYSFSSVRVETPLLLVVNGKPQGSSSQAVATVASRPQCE
# UniProt Q9H3M7: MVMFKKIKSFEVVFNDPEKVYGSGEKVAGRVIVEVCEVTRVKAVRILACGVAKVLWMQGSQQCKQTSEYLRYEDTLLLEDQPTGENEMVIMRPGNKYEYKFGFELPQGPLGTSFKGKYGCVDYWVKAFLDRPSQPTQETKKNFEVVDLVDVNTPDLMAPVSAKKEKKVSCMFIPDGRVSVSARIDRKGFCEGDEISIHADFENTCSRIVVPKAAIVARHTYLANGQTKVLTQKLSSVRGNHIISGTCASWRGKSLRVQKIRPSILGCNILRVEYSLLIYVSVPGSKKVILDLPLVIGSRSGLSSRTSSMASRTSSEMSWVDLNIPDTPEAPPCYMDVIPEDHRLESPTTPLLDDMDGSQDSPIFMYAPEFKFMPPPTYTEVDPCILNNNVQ
# This is one part of the list.
# Compound: Cc1cc(ccc1-c1ccccc1)C(=O)N1CCCN(CC1)C(=O)CCl [compound 10]
# Experiment: probe-labelled cysteine peptide fold change vs DMSO (competition) (log2 fold change); higher = less target engagement (more negative = stronger competition)
# Conditions: THP-1, incubation time: 4 h
# 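Note: competitive profiling in live THP-1 cells: cysteine peptides tagged with an iodoacetamide desthiobiotin (IA-DTB) probe, intensity after compound treatment relative to DMSO-treated cells.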
Target,probe-labelled cysteine peptide fold change (10 µM),probe-labelled cysteine peptide fold change (50 µM)
TSTA3_Q13630_116_VVSCLSTCIFPDK (UniProt Q13630),-0.0711,-1.67
TRNAU1AP_Q9NX07_157_ALTECQGAVGLGSKPVR (UniProt Q9NX07),-0.212,-0.171
TTLL12_Q14166_370_DCLASIAR (UniProt Q14166),-0.0521,-0.113
TRNT1_Q96Q11_373_YQGEHCLLK (UniProt Q96Q11),-0.39,-1.54
TTI2_Q6NXR4_185_EVLTSLLQVTECGSVAGFLHGENEDEK (UniProt Q6NXR4),-0.179,0.0887
TUBGCP3_Q96CW5_18_SPNVLLQNLCCR (UniProt Q96CW5),0.0264,-0.245
TSSC4_Q9Y5U2_99_SRDIFDCLEGAAR (UniProt Q9Y5U2),-0.38,-0.388
TSC2_P49815_414_CADQRPESSLLNLISYR (UniProt P49815),-0.151,-0.184
TSTA3_Q13630_112_VVSCLSTCIFPDK (UniProt Q13630),-0.0923,-0.367
TRRAP_Q9Y4A5_1868_LMTFAWPCLLSK (UniProt Q9Y4A5),-0.15,0.0883
TTLL12_Q14166_418_ERWGEDNHWICKPWNLAR (UniProt Q14166),-0.272,-0.759
TTC4_O95801_110_CADPDLNAVLYTNR (UniProt O95801),-0.0529,-0.155
TRRAP_Q9Y4A5_3535_IYPYLVMNDACLTESR (UniProt Q9Y4A5),-0.136,-0.0829
TRRAP_Q9Y4A5_2513_STPIGTSCQGAMLPSITNVINLADSHDR (UniProt Q9Y4A5),0.223,0.295
TTC1_Q99614_178_EMAINDCSK (UniProt Q99614),0.303,-0.13
TUFM_P49411_290_GDECELLGHSK (UniProt P49411),-0.02,-0.0434
TTC5_Q8N0Z6_304_KLQSMLGSLRPAHLGPCSDGHYQSASGQK (UniProt Q8N0Z6),-0.153,-0.354
TUBGCP6_Q96RT7_640_DCAVYVGR (UniProt Q96RT7),0.137,0.0858
TTC39C_Q8N584_463_ALPNCSFPNLQR (UniProt Q8N584),-0.0698,0.209
TUBGCP3_Q96CW5_497_SINFLHQVCHDQTPTTK (UniProt Q96CW5),-0.0597,0.247
TXNDC9_O14530_94_ESENVVCHFYR (UniProt O14530),-0.0612,-0.0184
TTLL12_Q14166_563+572_AFTELFQVACAKPPPLGLCDYPSSR (UniProt Q14166),0.109,0.217
TTC17_Q96AE7_412_EAQLGNHQICR (UniProt Q96AE7),0.172,0.378
TUBGCP5_Q96RT8_670_FAGGDVCVDR (UniProt Q96RT8),-0.0895,-0.626
TXNIP_Q9H3M7_49_ILACGVAK (UniProt Q9H3M7),0.142,-0.747
TTC14_Q96N46_577_DRCPLSSSSLEIPDDFGGR (UniProt Q96N46),0.256,-0.193
TTF2_Q9UNY4_204_KQEEGAEIQCEAETGGTHK (UniProt Q9UNY4),-0.381,0.049
TRRAP_Q9Y4A5_429_LLLNLVDCIR (UniProt Q9Y4A5),0.0954,0.0803

# Reprinted at random: 2 entries already listed
Target,probe-labelled cysteine peptide fold change (10 µM),probe-labelled cysteine peptide fold change (50 µM)
TTLL12_Q14166_563+572_AFTELFQVACAKPPPLGLCDYPSSR (UniProt Q14166),0.109,0.217
TSTA3_Q13630_112_VVSCLSTCIFPDK (UniProt Q13630),-0.0923,-0.367
